Laboratory results published in PubChem BioAssay AID493014 (National Center for Advancing Translational Sciences (NCATS), 2011).
This is one part of the list. The main result of the screen is listed elsewhere. These columns were measured beside it and carry no call. Most of these compounds were active or inconclusive in the main read-out, so they are no random draw. Potencies come from curve fits of mixed quality, noted in brackets.

Assay: qHTS Assay to Find Inhibitors of Chronic Active B-Cell Receptor Signaling
Conditions: ABC-DLBCL IkBa-CBG/CBR reporter, luminescence ratio (green luciferase fused to IkBa over red control in TMD8 lymphoma cells), 4 h
Procedure, shortened: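 TMD8 human ABC-DLBCL cells with doxycycline-inducible IκBα–green luciferase fusion and unfused red luciferase, in 0.5% FBS medium; compounds up to 46 uM, 4 h at 37C. Green/red luminescence ratio, filter-overlap corrected, fitted to concentration-response curves.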

[1] = measured here: CBR red luminescence, cell number

## O=C(c1ccccn1)N1CCN(S(=O)(=O)c2ccc3ccccc3c2)CC1
[1]
  AC50: 31.6 µM [rising, partial curve, poor fit]

## O=C(Nc1ncc(Cc2cccc(Cl)c2)s1)c1cccs1
[1]
  AC50: 11.2 µM [falling, partial curve, poor fit]

## COc1ccc2c(c1)cc(C(=O)O)n2C
[1]
  AC50: 23.1 µM [falling, single point]

## CC1=NN(C2=NS(=O)(=O)c3ccccc32)C(C)(O)C1 (configuration not stated)
[1]
  AC50: 25.1 µM [rising, partial curve, poor fit]

## COC(=O)/C=c1\sc2n(c1=O)C(C)=CC(C)(C)N=2
[1]
  AC50: 20.6 µM [falling, single point]

## COc1cc2c(cc1OC)C(Cc1ccc(O)cc1)NCC2 (configuration not stated)
Measured here: IkBa-CBG green luminescence
  AC50: 29.1 µM [falling, single point]

## COc1cc(C(=O)Oc2cccc(/C=N/NC(=O)c3cccnc3)c2)cc(OC)c1OC
[1]
  AC50: 1.78 µM [falling, partial curve, poor fit]

## Clc1ccc(-c2nnc3c4ccccc4nc(N4CCOCC4)n23)cc1Cl
[1]
  AC50: 12.6 µM [falling, partial curve]

## O=C1OC(c2ccc3c(c2)OCO3)N(C(=O)c2ccc(Cl)c(Cl)c2)c2ccccc21 (configuration not stated)
[1]
  AC50: 0.0146 µM [falling, full curve]

## COc1cccc(C(=O)N/N=C(\C)c2cccc(NC(=O)c3ccc(F)cc3)c2)c1OC
[1]
  AC50: 8.91 µM [falling, partial curve, poor fit]

## CC(C)(C)NC(=O)C(c1c[nH]c2ccccc12)N(C(=O)Cn1nnc(-c2ccc(F)cc2)n1)c1cccc(O)c1 (configuration not stated)
[1]
  AC50: 29.1 µM [falling, single point]

## C=C(C)COc1ccc(-c2nc(N)ncc2-c2ccc(Cl)cc2)c(O)c1
[1]
  AC50: 3.55 µM [rising, single point]

## O=C(O)c1cc(=O)n(Cc2ccccc2)c(=O)[nH]1
[1]
  AC50: 35.5 µM [falling, partial curve, poor fit]

## CC1=C(C(=O)Nc2ccccn2)C(c2ccc(Br)cc2)NC(=S)N1 (configuration not stated)
[1]
  AC50: 1.3 µM [falling, full curve]

## CS(=O)(=O)Nc1ccc(N2CCN(c3ccc(C(F)(F)F)cn3)CC2)nc1
[1]
  AC50: 7.94 µM [rising, partial curve, poor fit]

## Cc1ccc(NS(=O)(=O)c2cc(C(=O)Nc3cccc([N+](=O)[O-])c3)ccc2C)cc1
[1]
  AC50: 29.1 µM [falling, single point]

## Cc1sc2ncnc(Sc3ccccc3C(=O)Nc3ccc(Br)cc3)c2c1C
[1]
  AC50: 16.4 µM [falling, partial curve]
